Measured values published in the supplement of paper PMC6289059.
The list shows a part of the results. Many values rest on one well or one pass, so single values are uncertain.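 The cells are hepatocyte-like cells grown from human stem cells in which the DGUOK gene was disrupted by CRISPR, a model of liver mtDNA depletion syndrome. Each well's ATP signal was scored against the other wells on its plate, and a drug counted as a primary hit when its score was 3 or higher.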

tested on: DGUOK Δ14/Δ5 iPSC-derived hepatocyte-like cells (SV20); assay: ATP level (CellTiter-Glo luminescence) Z score relative to plate distribution, under 2-DG glycolysis block; higher = more cellular ATP (rescue of mitochondrial ATP production); details: 5 µM; treatment time: day 15 to day 20 of differentiation (5 days); 2-deoxy-D-glucose: 20 mM for 24 h before assay

Compound | ATP level
COc1cc(O)c(C)c(O)c1 | inactive: 0.415
C[C@]12CC[C@@H]3c4ccc(O)cc4CC[C@H]3[C@@H]1C[C@H](O)[C@@H]2O | inactive: 0.835
C[C@H](CCC(=O)O)[C@H]1CC[C@H]2[C@@H]3CC[C@@H]4CCCC[C@]4(C)[C@H]3CC[C@]12C | inactive: 0.96
N=C(N)NC(=O)c1nc(Cl)c(N2CCCCCC2)nc1N | inactive: -4.24
CC1=C(CC(=O)O)c2cc(F)ccc2/C1=C\c1ccc([S+](C)[O-])cc1 (stereo not drawn) | inactive: -0.754
CC(Oc1c(Cl)cccc1Cl)C1=NCCN1 (stereo not drawn) | inactive: 0.914
Cc1cccc2c3c(ccc12)C1=C(C(=O)C3=O)[C@@H](C)CO1 | inactive: -2.28
C[C@]12CC[C@@H]3c4ccc(O)cc4CC[C@H]3[C@@H]1C[C@@H](O)[C@@H]2O | inactive: -23.5
CCOc1ccc(C(=O)c2ccc(O)c(O)c2O)cc1 | inactive: -0.88
CCCCC(=O)O[C@]1(C(=O)CO)CC[C@H]2[C@@H]3CCC4=CC(=O)CC[C@]4(C)[C@H]3[C@@H](O)C[C@@]21C | inactive: 1.53
CCc1cccc2c3c([nH]c12)C(CC)(CC(=O)O)OCC3 (stereo not drawn) | inactive: 1.83
Cc1noc(NS(=O)(=O)c2ccc(N)cc2)c1C | inactive: -9.71
COc1ccc2c(c1)OCC(Cc1ccc(OC)c(OC(C)=O)c1)C2=O (stereo not drawn) | inactive: -2.23
OCCOCCN1CCN(C(c2ccccc2)c2ccc(Cl)cc2)CC1 (stereo not drawn) | inactive: 0.361
CC(=O)O[C@H]1C[C@@H](OC(C)=O)C(C)(C)C2C[C@@H](O)[C@]3(C)C(CC[C@@]4(C)[C@H](c5ccoc5)OC(=O)[C@H]5O[C@]543)[C@]21C (stereo partly drawn) | inactive: 0.846
Cc1cc(-n2c(=O)[nH]c(=O)n(C)c2=O)ccc1Oc1ccc(SC(F)(F)F)cc1 | inactive: -2.79
Cc1ccccc1N1C(=O)c2cc(S(N)(=O)=O)c(Cl)cc2NC1C (stereo not drawn) | inactive: -0.212
CO[C@H]1[C@H](O)[C@@H](O)[C@H](O)[C@H](O)[C@H]1O | inactive: 1.8
COc1ccc(-c2coc3c(OC)c(OC)cc(O)c3c2=O)cc1 | inactive: -0.127
COc1ccc(C(=O)c2ccc(O)cc2)c(O)c1O | inactive: 0.787
CC(C)COC(=O)c1ccc(N)cc1 | inactive: 1.39
COC(=O)C(C)c1ccc(C(=O)c2cccs2)cc1 (stereo not drawn) | inactive: -0.701

Entries listed so far containing fluorine, in the order listed:
Compound | ATP level
CC1=C(CC(=O)O)c2cc(F)ccc2/C1=C\c1ccc([S+](C)[O-])cc1 (stereo not drawn) | inactive: -0.754
Cc1cc(-n2c(=O)[nH]c(=O)n(C)c2=O)ccc1Oc1ccc(SC(F)(F)F)cc1 | inactive: -2.79

Additional structures follow:

Compound | ATP level
COc1ccc2[nH]c([S+]([O-])Cc3ncc(C)c(OC)c3C)nc2c1 (stereo not drawn) | inactive: 0.573
NCCCC(N)C(=O)O (stereo not drawn) | inactive: -0.916
CCCCC(CC)CN=C(N)N=C(N)NCCCCCCNC(N)=NC(N)=NCC(CC)CCCC (stereo not drawn) | inactive: -2.29
O=C(O)c1cc(O)c(=O)c2c(O)c(O)ccc2c1 | inactive: -0.106
CC(=O)Oc1c(C)c(C)c2c(c1C)CCC(C)(CCCC(C)CCCC(C)CCCC(C)C)O2 (stereo not drawn) [alpha-TOCHOPHERYL ACETATE [4mM]] | inactive: -0.227
C=CCSCC(N)C(=O)O (stereo not drawn) | inactive: 1.93
O=S(=O)(O)CCCS(=O)(=O)O | inactive: -11.2
O=C1CC(c2ccc(O)cc2)Oc2ccccc21 (stereo not drawn) | inactive: -6.89
Cc1cc(O)c(C=O)c2c1C(=O)Oc1c(COC(=O)/C=C/C(=O)O)c(O)c(C(=O)O)c(C)c1O2 | inactive: 0.998
CN(C)CCOC(=O)COc1ccc(Cl)cc1 | inactive: -0.499
O=C(OCc1ccccc1)c1ccccc1 | inactive: 0.165
N=C(N)N/N=C/c1c(Cl)cccc1Cl | inactive: -7.6
Cc1ccc2c(Cl)cc(Cl)c(O)c2n1 | inactive: 0.308
OC(CCN1CCCCC1)(c1ccccc1)C1CCCCC1 (stereo not drawn) | inactive: -12.7
CCC(=O)OCC(=O)[C@@]1(OC(=O)CC)[C@H](C)C[C@H]2[C@H]3[C@H]([C@@H](O)C[C@@]21C)[C@@]1(C)C=CC(=O)C=C1C[C@H]3Cl | inactive: 0.863
CN(CCOc1ccc(CC2SC(=O)NC2=O)cc1)c1ccccn1 (stereo not drawn) | inactive: 2.25
O=C(CC(=O)c1ccccc1)c1ccccc1 | inactive: 0.888
C[C@H]1C[C@@H]2[C@H]([C@@H](O)C[C@@]3(C)[C@H]2CC[C@]3(O)C(=O)COC(=O)CCC(=O)O)[C@@]2(C)C=CC(=O)C=C12 | active: 7.28
Nc1cc(-c2ccncc2)c[nH]c1=O | active: 5.56
CC(N)C12CC3CC(CC(C3)C1)C2 (stereo not drawn) | inactive: -0.169
COC(=O)C(N)CS (stereo not drawn) | inactive: 0.844
Cn1c([N+](=O)[O-])cnc1COC(N)=O | inactive: 1.87

Compound | ATP level
COC(=O)[C@@H]1OC(=O)C2OC23[C@@]1(C)CCC1[C@@]2(C)CCC(=O)C(C)(C)C2C[C@@H](OC(C)=O)[C@]13C (stereo partly drawn) | inactive: 0.152
NC(N)=O | inactive: -1.51
COc1ccc(C(=O)NCc2ccc(OCCN(C)C)cc2)cc1OC | inactive: -0.746
N[C@@H](C(=O)N[C@@H]1C(=O)N2C(C(=O)O)=C(Cl)CS[C@H]12)c1ccccc1 | inactive: 0.841
COc1ccc(-c2cc(C(F)F)nn2-c2ccc(S(N)(=O)=O)cc2)cc1F | inactive: -1.29
OC[C@H]1O[C@@H](O[C@@H]2[C@@H](CO)OC(O)(CO)[C@H]2O)[C@H](O)[C@@H](O)[C@H]1O (mixture of isomers) | inactive: 1.76
C[C@@H]1CC[C@@]2(OC1)O[C@H]1C[C@H]3[C@@H]4CC[C@@H]5C[C@@H](O)CC[C@]5(C)[C@H]4CC[C@]3(C)[C@H]1[C@@H]2C | inactive: -1.6
CCCCCCCCCCCCCCCC(=O)NCCO | inactive: -0.353
C=C1C2CC[C@@]3(C)[C@H](c4ccoc4)OC(=O)C[C@]13O[C@H]1CC(O)C(C)(C)C(CC(=O)OC)[C@@]21C (stereo partly drawn) [3alpha-HYDROXY-3-DEOXYANGOLENSIC ACID METHYL ESTER] | inactive: -3.03
O=C(O)c1ccccc1Nc1ccccc1 | inactive: 0.254
Nc1ncnc(Nc2ccc(Cl)cc2)n1 | inactive: 1.01
CC(=O)O[C@H]1CC[C@]2(C)C3=C(CC[C@H]2C1(C)C)[C@]1(C)CC[C@H]([C@H](C)CCC=C(C)C)[C@@]1(C)CC3 | inactive: 1.73
CC1CCc2c(N3CCC(O)CC3)c(F)cc3c(=O)c(C(=O)O)cn1c23 (stereo not drawn) | inactive: -3.6
Clc1ccc(COC(Cn2ccnc2)c2ccc(Cl)cc2Cl)c(Cl)c1 (stereo not drawn) | inactive: 1.93
Cc1cc(=O)n(-c2ccccc2)n1C | inactive: -0.215
NC12CC3CC(CC(C3)C1)C2 | inactive: 1.25
CO[C@H]1O[C@@H]2O[C@@]3(C)CC[C@H]4[C@H](C)CC[C@@H]([C@H]1C)[C@@]24OO3 | inactive: 1.83
O=c1c2ccccc2oc2ccccc12 | inactive: -0.223
CC(C)(C(=O)c1cccnc1)c1cccnc1 | inactive: 1.47
NCCCCNCCCN | inactive: 0.408
CN1CC(=O)NC1=N | inactive: -2.63
C=CC(C)(O)CCC1C(=C)CC(O)C2C(C)(C)CCCC12C (stereo not drawn) | inactive: -5.6

Compound | ATP level
CC(=O)N(O)CCCCCNC(=O)CCC(=O)N(O)CCCCCNC(=O)CCC(=O)N(O)CCCCCN | inactive: 0.634
O=C1Cc2cc(CCN3CCN(c4nsc5ccccc45)CC3)c(Cl)cc2N1 | inactive: -0.537
CC(C)/N=c1\cc2n(-c3ccc(Cl)cc3)c3ccccc3nc-2cc1Nc1ccc(Cl)cc1 | active: 4.62
CCNC(=O)CC[C@H](N)C(=O)O | inactive: 0.758
CO[C@@]1(NC(=O)CSCC#N)C(=O)N2C(C(=O)O)=C(CSc3nnnn3C)CS[C@@H]21 | inactive: 1.21
C[C@@H]1[C@H](O)[C@@H](C)/C=C/C=C/C=C/C=C/C=C/C=C/C=C/[C@H](O[C@@H]2O[C@H](C)[C@@H](O)[C@H](N)[C@@H]2O)C[C@@H]2O[C@](O)(C[C@@H](O)C[C@@H](O)[C@H](O)CC[C@@H](O)C[C@@H](O)CC(=O)O[C@H]1C)C[C@H](O)[C@H]2C(=O)O | inactive: -0.128
CCOC(=O)C(C)(C)Oc1ccc(Cl)cc1 | inactive: 1.33
CCC(NC(C)C)C(O)c1ccc(O)c(O)c1 (stereo not drawn) | inactive: 1.76
CCC(Cc1c(I)cc(I)c(N)c1I)C(=O)O (stereo not drawn) | inactive: 1.91
CN1CCc2cccc3c2[C@H]1Cc1ccc(O)c(O)c1-3 | inactive: -2.08
CN(C)c1ccc(O)c2c1C[C@H]1C[C@H]3[C@H](N(C)C)C(=O)C(C(N)=O)=C(O)[C@@]3(O)C(=O)C1=C2O | inactive: -1.61
C[C@]12CC[C@@H]3c4ccc(O)cc4CC[C@H]3[C@@H]1CC[C@@H]2OC(=O)CCC1CCCC1 | inactive: 0.032
COc1cc(OC)c(C(=O)CCCN2CCCC2)c(OC)c1 | inactive: 0.803
N#CC(c1ccc(Cl)cc1)c1c(Cl)cc(-n2ncc(=O)[nH]c2=O)cc1Cl (stereo not drawn) | inactive: 0.872
O.O.O.O.O=C([O-])CC(O)(CC(=O)[O-])C(=O)[O-].[Li+].[Li+].[Li+] | inactive: 1.18
O=C[C@H](O)[C@H](O)CO | inactive: -1.62
CCN1C(=O)NC(c2ccccc2)C1=O (stereo not drawn) | inactive: 1.54
COc1ccccc1N1CCN(CC(O)COc2cccc3ccccc23)CC1 (stereo not drawn) | inactive: -8.43
CN1CCC(=C2c3ccccc3CC(=O)c3sccc32)CC1 | inactive: 0.669
CC[C@H](CC[C@@H](C)[C@H]1CC[C@H]2[C@@H]3CC=C4C[C@@H](O)CC[C@]4(C)[C@H]3CC[C@]12C)C(C)C [beta-SITOSTEROL] | inactive: -0.581
CCCCC[C@H](CC(=O)O)C(=O)O | inactive: 0.83
CCCN(CCC)C(=O)C(CCC(=O)O)NC(=O)c1ccccc1 (stereo not drawn) | inactive: -4.89

2 of the compounds above, as labelled records.
O=C[C@H](O)[C@H](O)CO
  ATP level: inactive: -1.62
CCN1C(=O)NC(c2ccccc2)C1=O (stereo not drawn)
  ATP level: inactive: 1.54
